In article PMC10450662:
No constants are given. Whether binding was seen depends on the method and setting. Binding seen in cells or lysates may run through a third protein. Some entries that bind do so weakly or less than the wild type.

Sequences of proteins named here, by UniProt entry; tags and fusion partners are left off.
UniProt Q07335: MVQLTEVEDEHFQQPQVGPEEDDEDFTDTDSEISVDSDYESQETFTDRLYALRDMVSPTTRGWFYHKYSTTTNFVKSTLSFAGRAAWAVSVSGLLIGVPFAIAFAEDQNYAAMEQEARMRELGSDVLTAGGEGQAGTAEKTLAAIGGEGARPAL

Biological target: Tom22 of Neurospora crassa with a hexahistidine tag (Neurospora crassa) (UniProt Q07335)
Test: pull-down + SEC; His6-Tom22 held on a nickel-NTA column from outer membrane vesicles of N. crassa GR-107 solubilised in 1% GDN (10 mM MOPS pH 7.0, 50 mM potassium acetate, 50 mM imidazole), eluted with 300 mM imidazole, then Superdex 200 Increase; subunits seen by SDS-PAGE with Coomassie staining

- binding: binds
B1: Tom6 of the Neurospora crassa TOM complex (protein, UniProt Q1K6I2 1-60)
chain: MPSAKYIERPGGSRKSKGFIRSTYDSLTSSENASVVRSIAFFGAAVAFLSSSWGEMLVVQ
